# Assay results taken from PubChem BioAssay AID493014 (National Center for Advancing Translational Sciences (NCATS), 2011).
# Some of the results follow. These are further read-outs of the screen, such as a control signal, another cell line or another target. No call is given for them. Most of these compounds were active or inconclusive in the main read-out, so they are no random draw. Potencies come from curve fits of mixed quality, noted in brackets.
# Assay: qHTS Assay to Find Inhibitors of Chronic Active B-Cell Receptor Signaling
# Details: ABC-DLBCL IkBa-CBG/CBR reporter, luminescence ratio (green luciferase fused to IkBa over red control in TMD8 lymphoma cells), 4 h
# How it was run: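 TMD8 ABC-DLBCL cells carrying doxycycline-inducible green luciferase fused to IkappaBalpha plus unfused red luciferase were exposed to compounds (up to 46 uM) for 4 hrs at 37C. Activity came from the overlap-corrected green/red luminescence ratio.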
# [1] = measured here: CBR red luminescence, cell number
# [2] = measured here: IkBa-CBG green luminescence
Compound,AC50 [1],AC50 [2]
COc1ccc(-c2nnc(SCC(=O)N3CCCCC3)o2)cc1,"0.112 µM [rising, full curve, poor fit]",–
COc1ccc(-c2nn(-c3ccccc3)cc2C(=O)N2CCN(S(=O)(=O)c3ccccc3C#N)CC2)cc1,"6.51 µM [rising, partial curve, poor fit]",–
COc1ccc(N(CC(=O)Nc2ccccc2C(F)(F)F)C2=NC3CS(=O)(=O)CC3S2)cc1 (configuration not stated),"10 µM [falling, partial curve]",–
CCN1CCC(NC(=O)Nc2ccc(F)cc2F)CC1,"3.98 µM [falling, partial curve, poor fit]",–
CCCCn1c(CCc2ccccc2)nc2cc3[nH]c(=O)c(C(C)C)nc3cc21,"15.8 µM [falling, partial curve, poor fit]",–
COc1ccc(NC(=O)CN(C)C(=O)c2ccc(NS(=O)(=O)c3ccc(F)cc3)cc2)cc1,"29.1 µM [rising, single point]",–
Oc1ccc(O)c(Cc2nc3ccccc3s2)c1,"12.6 µM [falling, partial curve]",–
C=C1C(=O)O[C@@H]2[C@H]1CC[C@H](C)[C@]1(O)CCC(=O)[C@@]21C,"11.2 µM [falling, partial curve, poor fit]",–
Cc1cccc(C)c1NC(=O)C1CCCN(CCCc2ccccc2)C1 (configuration not stated),"6.51 µM [falling, single point]",–
O=C(NCCc1cn2ccccc2n1)c1cc(COc2ccc3ncccc3c2)on1,"35.5 µM [falling, single point]",–
Cc1cc(/C=C2\SC(=O)N(C)C2=O)c(C)n1-c1cccc(C(=O)O)c1,"35.5 µM [falling, single point]",–
CCOc1cccc(C(=O)Nc2ccc(N3CCCC3)cc2)c1,"11.2 µM [falling, partial curve]",–
CCOC(=O)C1CCN(CC(=O)c2c(C)[nH]c3cc(C)ccc23)CC1,"35.5 µM [falling, single point]",–
O=C(Nc1ccc2nc(-c3ccc(Br)o3)[nH]c2c1)c1ccco1,"12.6 µM [falling, partial curve, poor fit]",–
COc1ccccc1[C@H]1C(c2ccccc2)=NN(c2ccccc2)[C@@H]1CO,"29.1 µM [falling, single point]",–
O=C(Cn1nnc2ccccc21)N/N=C\C=C\c1ccccc1,"15.8 µM [rising, partial curve]",–
CC(C)c1cccc(C2=CC(=O)C[C@H](c3ccc4c(c3)OCO4)C2)c1,"13 µM [rising, partial curve, poor fit]",–
Cc1c(C)n(CCc2ccccc2)c2ncnc(NCCCN(C)C)c12,"35.5 µM [falling, partial curve, poor fit]",–
COc1ccc(-c2[nH]ncc2/C=C(/C#N)C(=O)NC2CCCCC2)cc1,"1.84 µM [rising, partial curve]",–
O=C(NC(=S)Nc1cccc(F)c1)c1cccc([N+](=O)[O-])c1,"12.6 µM [falling, partial curve]","17.8 µM [falling, partial curve, poor fit]"
COc1cccc(C(=O)OCC(=O)N2CCc3ccccc3C2)c1,"18.4 µM [falling, partial curve, poor fit]",–

# Three structures from above, ordered by molecular weight, low to high:
Compound,AC50 [1],AC50 [2]
COc1ccc(-c2[nH]ncc2/C=C(/C#N)C(=O)NC2CCCCC2)cc1,"1.84 µM [rising, partial curve]",–
Cc1cc(/C=C2\SC(=O)N(C)C2=O)c(C)n1-c1cccc(C(=O)O)c1,"35.5 µM [falling, single point]",–
O=C(NCCc1cn2ccccc2n1)c1cc(COc2ccc3ncccc3c2)on1,"35.5 µM [falling, single point]",–

# (continued)

Compound,AC50 [1],AC50 [2]
O=C(Cc1c(Cl)cccc1Cl)OCc1ccccn1,"15.8 µM [rising, single point]",–
CC(C)c1cccc(C(C)C)c1NC(=O)CNCc1ccccc1F,"18.4 µM [falling, partial curve, poor fit]",–
COc1cc(/C=C2\SC(=O)N(c3ccccc3Cl)C2=O)cc([N+](=O)[O-])c1O,"35.5 µM [falling, single point]",–
O=C(CN1C(=O)NC2(CCCC2)C1=O)N1CCN(S(=O)(=O)c2ccccc2Br)CC1,"35.5 µM [falling, partial curve, poor fit]",–
Cc1nn(-c2ccccc2)cc1/C=N/NS(=O)(=O)c1ccccc1,"6.51 µM [falling, single point]",–
CCCC1=C(C(=O)OCC)C(c2ccccc2OCC)NC(=O)N1C (configuration not stated),"15.8 µM [falling, partial curve, poor fit]",–
COc1cccc(-n2cc(CN(C)Cc3nc(Cc4cccc(F)c4)no3)cn2)c1,"3.55 µM [rising, partial curve, poor fit]",–
COc1ccc(C)cc1NC(=O)COC(=O)c1c(C)nn(-c2ccccc2)c1C,"29.1 µM [falling, single point]",–
CCOC(=O)c1c(S(=O)(=O)Nc2ccc(CN3CCC(C)CC3)cc2)c(C)n(C)c1C,"0.794 µM [rising, full curve, poor fit]",–
COc1cccc(OC)c1NC(=O)CN1CCC(NC(=O)c2cccc(F)c2)CC1,"11.6 µM [rising, partial curve, poor fit]",–
COCCN1CN(S(=O)(=O)c2ccc(Cl)cc2)c2nc3ccccc3nc21,"35.5 µM [falling, single point]",–
Cc1ccc(CCC(=O)Nc2ncc(Cc3cccc(Cl)c3Cl)s2)o1,"0.731 µM [rising, full curve]","0.517 µM [falling, full curve]"
N#C/C(=C/c1cn(CC(=O)O)c2ccccc12)C(=O)Nc1ccccc1,"11.2 µM [falling, single point]",–
CC(=O)c1ccc2c3c(cccc13)CC2,"29.1 µM [rising, single point]",–
CN1CCC(=NNC(=O)c2cc(-c3ccc(Cl)cc3)n[nH]2)CC1,"11.2 µM [rising, partial curve, poor fit]","12.6 µM [falling, single point]"
O=C1Nc2cc(Cl)c(Cl)cc2N(O)N1c1ccc(Cl)cc1,"15.8 µM [falling, partial curve, poor fit]",–
O=C(O)CSc1nc2ccccc2c(=O)[nH]1,"11.6 µM [falling, partial curve, poor fit]",–
CC(=O)NS(=O)(=O)c1ccc(NC(=O)/C=C/c2ccccc2)cc1,"20 µM [falling, single point]",–
Cc1cc(C(=O)CSc2cccc[n+]2[O-])c(C)n1-c1ccccc1,"35.5 µM [falling, single point]","28.2 µM [falling, single point]"
CCOc1ncccc1C(=O)OCC(=O)c1ccc(C)c(C)c1,"12.6 µM [falling, partial curve, poor fit]",–
O=c1c2c(nc3nc(CCc4ccccc4)[nH]n13)CCC2,"0.461 µM [falling, full curve]",–

# Not a retest: two of the compounds above.
Compound,AC50 [1],AC50 [2]
CCOc1ncccc1C(=O)OCC(=O)c1ccc(C)c(C)c1,"12.6 µM [falling, partial curve, poor fit]",–
O=c1c2c(nc3nc(CCc4ccccc4)[nH]n13)CCC2,"0.461 µM [falling, full curve]",–

# Next part.

Compound,AC50 [1],AC50 [2]
CCOC(=O)C1CCN(c2c([N+](=O)[O-])c(C(Cl)Cl)nn2-c2ccccc2)CC1,"7.31 µM [rising, partial curve, poor fit]",–
O=C1c2ccccc2NC(c2ccc(O)cc2)N1/N=C/c1ccc(O)cc1 (configuration not stated),"20.6 µM [falling, partial curve]",–
CC1(C)CC2(CCO1)OC(=O)CC2C(=O)Nc1ccc(Cl)cc1[N+](=O)[O-] (configuration not stated),"0.316 µM [rising, full curve, poor fit]",–
N/C(=N\N=C\c1ccc(Br)o1)c1nonc1N,"17.8 µM [falling, single point]",–
O=C(c1ccccc1)c1coc2ccc(O)c(CN3CCOCC3)c12,"1.03 µM [falling, full curve, poor fit]",–
Cc1cc(C)c(C#N)c(SCC(=O)Nc2ccc(S(=O)(=O)Nc3ncccn3)cc2)n1,"14.1 µM [falling, single point]",–
COC(=O)CC/C(=N/Nc1ccc(Cl)c(Cl)c1)C(=O)OC,"7.94 µM [rising, partial curve]",–
N#Cc1ccc(Oc2cccc3cccnc23)c([N+](=O)[O-])c1,"3.55 µM [rising, full curve, poor fit]",–
CCCCn1c(N)c(N(CCOC)C(=O)c2ccc(Br)s2)c(=O)[nH]c1=O,"18.4 µM [rising, single point]",–
Cc1ccc(CNC(=O)CCCNC(=O)c2ccc(Cl)cc2)n1C,"29.1 µM [rising, single point]",–
Cc1ccc(OCCN2C(=O)C(=O)c3cc(C)ccc32)cc1,"5.62 µM [rising, full curve]","3.55 µM [falling, full curve]"
CCCC(=O)Nc1cccc(-c2nc3cc(C)c(C)cc3o2)c1,"0.112 µM [rising, full curve, poor fit]",–
COc1cc(C(=O)N2CCN(c3ccccn3)CC2)cc(OC)c1OC,"8.91 µM [rising, partial curve]",–
COc1ccc(NC(=O)C2CCN(S(=O)(=O)c3ccc(Br)s3)CC2)cc1OC,"29.1 µM [rising, single point]",–
O=C(Oc1ccccc1)c1ccc(-n2cnnn2)cc1,"12.6 µM [rising, partial curve, poor fit]",–
Nc1ncnc2nc[nH]c12,"1.41 µM [rising, partial curve]",–
Cc1cc(C)c2c(-n3cccc3)c(C(=O)O)sc2n1,"22.4 µM [falling, single point]",–
COC(=O)/C=C1\SC(N2CCOCC2)=C(c2ccc(OC)cc2)C1=O,"3.55 µM [falling, full curve, poor fit]",–
C=CCSc1ncccc1C(=O)O,"29.1 µM [rising, single point]",–
CC(=O)C1=C(C)Nc2ncnn2C1c1ccc(Cl)cc1Cl (configuration not stated),"10 µM [falling, partial curve, poor fit]",–
